Experimental data: PubChem BioAssay AID652243 (Drosophila RNAi Screening Center, 2013)
In all, the deposit lists about 24,000 reagents; shown is a random part of those with a known target gene and a result. Of all reagents, 246 (1%) were called active. 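Plates not normalised; calls are printed but the firefly/Renilla ratio behind them is not deposited; fold cut for lowering reported inconsistently.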 Raw values vary from plate to plate and are shown uncorrected. Unmarked entries are inactive. No sequences are given here. Not given: the amount of reagent.

- Purpose: 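Fly regulators of androgen-dependent reporter output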 (primary screen)
- Cell system: Drosophila S2R+ cells
- Reagent: long dsRNA against Drosophila genes
- Timing: 72 h (48 h, then 24 h hormone)
- Challenge: synthetic androgen R1881 at 10 nM for 24 h
- Measured: 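Per-well raw luminescence of the androgen-driven firefly reporter and of the Renilla control, two replicates each, without normalisation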
- Scale: firefly reporter light: higher = more light from androgen-responsive reporter; Renilla control light: higher = more constitutive control signal (cell number, transfection)
- Rule for the call: 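Hit when the log firefly-to-Renilla ratio dropped or increased by a fixed fold versus the mean of GFP or LacZ controls across duplicate plates; lowering cut given as 1.5 and as 3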
- Meaning of the calls: active = hit: reporter lowered or raised; inactive = no hit

CG6429 [DRSC06986]
- firefly reporter light, replicate 1: 79997
- firefly reporter light, replicate 2: 73978
- Renilla control light, replicate 1: 1.19e6
- Renilla control light, replicate 2: 1.19e6

UGP (UDP-glucose pyrophosphorylase) [DRSC10411]
- firefly reporter light, replicate 1: 9.69e5
- firefly reporter light, replicate 2: 1.03e6
- Renilla control light, replicate 1: 1.49e6
- Renilla control light, replicate 2: 1.45e6

CG15468 [DRSC18051]
- firefly reporter light, replicate 1: 2.23e5
- firefly reporter light, replicate 2: 2.56e5
- Renilla control light, replicate 1: 3.46e6
- Renilla control light, replicate 2: 2.25e6

CG5254 [DRSC18611]
- firefly reporter light, replicate 1: 2.53e5
- firefly reporter light, replicate 2: 1.71e5
- Renilla control light, replicate 1: 2.97e6
- Renilla control light, replicate 2: 1.78e6

CG14422 [DRSC17919]
- firefly reporter light, replicate 1: 3.44e5
- firefly reporter light, replicate 2: 3.36e5
- Renilla control light, replicate 1: 4.28e6
- Renilla control light, replicate 2: 3.74e6

CG14422 [DRSC25359]
- firefly reporter light, replicate 1: 1.21e6
- firefly reporter light, replicate 2: 1.87e6
- Renilla control light, replicate 1: 9.91e5
- Renilla control light, replicate 2: 1.09e6

CG32755 [DRSC18397]
- firefly reporter light, replicate 1: 3.39e5
- firefly reporter light, replicate 2: 5.05e5
- Renilla control light, replicate 1: 3.19e6
- Renilla control light, replicate 2: 3.21e6

CG32755 [DRSC27494]
- firefly reporter light, replicate 1: 2.50e5
- firefly reporter light, replicate 2: 2.33e5
- Renilla control light, replicate 1: 4.62e5
- Renilla control light, replicate 2: 7.56e5

Part of the list above, set out differently:
{"Target gene":"CG15468","amplicon":"DRSC18051","firefly reporter light, replicate 1":2.23e5,"firefly reporter light, replicate 2":2.56e5,"Renilla control light, replicate 1":3.46e6,"Renilla control light, replicate 2":2.25e6}
{"Target gene":"CG5254","amplicon":"DRSC18611","firefly reporter light, replicate 1":2.53e5,"firefly reporter light, replicate 2":1.71e5,"Renilla control light, replicate 1":2.97e6,"Renilla control light, replicate 2":1.78e6}

The listing continues.
Elba2 (Early boundary activity 2) [DRSC00731]
- firefly reporter light, replicate 1: 7.68e5
- firefly reporter light, replicate 2: 6.48e5
- Renilla control light, replicate 1: 3.54e6
- Renilla control light, replicate 2: 2.06e6

Elba2 (Early boundary activity 2) [DRSC28543]
- firefly reporter light, replicate 1: 6.10e5
- firefly reporter light, replicate 2: 7.76e5
- Renilla control light, replicate 1: 8.79e5
- Renilla control light, replicate 2: 1.30e6

CG13855 [DRSC14705]
- firefly reporter light, replicate 1: 2.79e5
- firefly reporter light, replicate 2: 3.20e5
- Renilla control light, replicate 1: 3.42e6
- Renilla control light, replicate 2: 2.89e6

CG13855 [DRSC26677]
- firefly reporter light, replicate 1: 2.73e5
- firefly reporter light, replicate 2: 2.87e5
- Renilla control light, replicate 1: 4.08e5
- Renilla control light, replicate 2: 6.81e5

CG34408 [DRSC17733]
- firefly reporter light, replicate 1: 1.93e5
- firefly reporter light, replicate 2: 1.28e5
- Renilla control light, replicate 1: 1.06e6
- Renilla control light, replicate 2: 1.01e6

CG34408 [DRSC23056]
- firefly reporter light, replicate 1: 7.38e5
- firefly reporter light, replicate 2: 8.28e5
- Renilla control light, replicate 1: 1.28e6
- Renilla control light, replicate 2: 1.44e6

CG34408 [DRSC27286]
- firefly reporter light, replicate 1: 4.15e5
- firefly reporter light, replicate 2: 4.75e5
- Renilla control light, replicate 1: 5.05e5
- Renilla control light, replicate 2: 5.56e5

CG34408 [DRSC28674]
- firefly reporter light, replicate 1: 4.72e5
- firefly reporter light, replicate 2: 4.29e5
- Renilla control light, replicate 1: 1.30e6
- Renilla control light, replicate 2: 1.08e6

chic (chickadee) [DRSC03507]
- firefly reporter light, replicate 1: 2.29e5
- firefly reporter light, replicate 2: 2.15e5
- Renilla control light, replicate 1: 2.69e6
- Renilla control light, replicate 2: 1.78e6

CG2202 [DRSC19841]
- firefly reporter light, replicate 1: 3.23e5
- firefly reporter light, replicate 2: 2.42e5
- Renilla control light, replicate 1: 2.17e6
- Renilla control light, replicate 2: 1.72e6

CG2202 [DRSC23452]
- firefly reporter light, replicate 1: 6.52e5
- firefly reporter light, replicate 2: 7.11e5
- Renilla control light, replicate 1: 6.00e5
- Renilla control light, replicate 2: 8.47e5

CG6142 [DRSC15976]
- firefly reporter light, replicate 1: 1.54e5
- firefly reporter light, replicate 2: 1.65e5
- Renilla control light, replicate 1: 2.10e6
- Renilla control light, replicate 2: 1.90e6

CG12213 [DRSC14478]
- firefly reporter light, replicate 1: 4.55e5
- firefly reporter light, replicate 2: 4.63e5
- Renilla control light, replicate 1: 3.17e6
- Renilla control light, replicate 2: 3.42e6

CG12213 [DRSC22109]
- firefly reporter light, replicate 1: 6.62e5
- firefly reporter light, replicate 2: 8.06e5
- Renilla control light, replicate 1: 2.48e6
- Renilla control light, replicate 2: 2.54e6

CG12213 [DRSC25474]
- firefly reporter light, replicate 1: 1.25e6
- firefly reporter light, replicate 2: 1.32e6
- Renilla control light, replicate 1: 1.32e6
- Renilla control light, replicate 2: 1.32e6
